These are yes or no findings as the source states them, for the method shown. Binding seen in cells or lysates may run through a third protein. Some results given as binding are weak or reduced against the parent protein; the word gives no strength.
Target: T1, Human epididymis protein 4 (HE4) (human (endogenous in CAOV3 and ES2)) (UniProt Q14508)
T1 sequence: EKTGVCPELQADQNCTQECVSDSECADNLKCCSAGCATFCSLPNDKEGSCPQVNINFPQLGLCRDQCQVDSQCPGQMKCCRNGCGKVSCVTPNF
Assay: co-IP; lysates of CAOV3 and ES2 cells (500 μg, sonicated in lysis buffer) incubated overnight at 4 °C with 2 μg anti-YWHAE or anti-HE4 antibody, Protein A/G Plus-Agarose beads 6 h; IgG of the same species as negative control; western blot

Protein sequences, listed by entry. Tags and fused reporters are not part of them.
UniProt P62258: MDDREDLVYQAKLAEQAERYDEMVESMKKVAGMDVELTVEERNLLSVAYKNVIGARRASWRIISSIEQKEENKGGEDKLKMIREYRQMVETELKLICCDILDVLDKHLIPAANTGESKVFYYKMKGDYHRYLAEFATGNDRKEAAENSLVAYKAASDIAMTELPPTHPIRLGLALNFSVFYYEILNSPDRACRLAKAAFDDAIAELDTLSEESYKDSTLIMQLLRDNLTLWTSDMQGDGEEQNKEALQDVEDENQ

binding: binds
Substance: tyrosine 3-monooxygenase/tryptophan 5-monooxygenase activation protein epsilon (YWHAE) (from UniProt P62258 1-255)
